Reference: the supplement of paper PMC7666118
Some of the results follow.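 The calls were made as follows: active = dose-dependent thermal stabilisation significant by F-test of dose-response against flat model at 10% FDR; inactive = not significant.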

Protein sequences, listed by entry. Tags and fused reporters are not part of them. Lines headed by an entry give the natural chain unless they say otherwise; changes in a name come on top.
UniProt Q16774: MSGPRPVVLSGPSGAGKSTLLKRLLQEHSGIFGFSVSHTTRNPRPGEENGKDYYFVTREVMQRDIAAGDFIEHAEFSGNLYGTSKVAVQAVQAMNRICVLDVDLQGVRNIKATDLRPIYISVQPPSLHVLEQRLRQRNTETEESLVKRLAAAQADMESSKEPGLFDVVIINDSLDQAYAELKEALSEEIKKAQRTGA
UniProt Q8WXI9: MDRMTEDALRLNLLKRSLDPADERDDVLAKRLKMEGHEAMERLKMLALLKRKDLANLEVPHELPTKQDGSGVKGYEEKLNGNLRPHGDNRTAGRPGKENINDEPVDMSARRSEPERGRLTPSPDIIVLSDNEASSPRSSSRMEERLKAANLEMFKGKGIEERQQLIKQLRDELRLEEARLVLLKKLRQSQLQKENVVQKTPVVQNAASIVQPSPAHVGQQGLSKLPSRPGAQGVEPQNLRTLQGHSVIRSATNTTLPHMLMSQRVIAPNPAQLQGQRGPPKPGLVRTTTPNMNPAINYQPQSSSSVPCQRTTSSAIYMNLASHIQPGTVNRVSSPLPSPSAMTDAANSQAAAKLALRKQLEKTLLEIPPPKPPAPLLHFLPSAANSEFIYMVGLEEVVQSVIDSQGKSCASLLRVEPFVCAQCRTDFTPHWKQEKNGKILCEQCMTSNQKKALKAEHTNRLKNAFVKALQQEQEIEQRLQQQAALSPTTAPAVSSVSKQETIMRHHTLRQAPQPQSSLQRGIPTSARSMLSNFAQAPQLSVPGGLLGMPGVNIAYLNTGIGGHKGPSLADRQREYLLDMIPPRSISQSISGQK
UniProt P29083: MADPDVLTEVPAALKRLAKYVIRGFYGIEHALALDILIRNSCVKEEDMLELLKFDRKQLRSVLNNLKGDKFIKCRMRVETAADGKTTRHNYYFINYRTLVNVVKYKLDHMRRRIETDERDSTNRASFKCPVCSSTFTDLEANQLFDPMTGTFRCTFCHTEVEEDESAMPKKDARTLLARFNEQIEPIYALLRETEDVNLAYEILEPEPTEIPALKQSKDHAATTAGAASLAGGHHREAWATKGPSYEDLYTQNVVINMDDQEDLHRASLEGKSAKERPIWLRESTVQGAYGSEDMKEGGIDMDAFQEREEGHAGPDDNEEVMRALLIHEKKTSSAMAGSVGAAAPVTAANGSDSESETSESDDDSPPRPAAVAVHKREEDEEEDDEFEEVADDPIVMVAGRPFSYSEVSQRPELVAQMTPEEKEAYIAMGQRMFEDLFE
UniProt Q9P0W2: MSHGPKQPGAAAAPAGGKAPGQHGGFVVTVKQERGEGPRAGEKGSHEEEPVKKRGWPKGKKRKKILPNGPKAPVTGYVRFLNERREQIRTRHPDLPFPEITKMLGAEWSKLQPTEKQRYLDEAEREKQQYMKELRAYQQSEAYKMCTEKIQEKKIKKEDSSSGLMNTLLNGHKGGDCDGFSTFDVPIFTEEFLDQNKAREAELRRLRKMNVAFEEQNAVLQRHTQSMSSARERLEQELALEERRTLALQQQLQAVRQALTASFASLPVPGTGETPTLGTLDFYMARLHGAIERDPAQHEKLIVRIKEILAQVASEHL
UniProt Q8TAK5: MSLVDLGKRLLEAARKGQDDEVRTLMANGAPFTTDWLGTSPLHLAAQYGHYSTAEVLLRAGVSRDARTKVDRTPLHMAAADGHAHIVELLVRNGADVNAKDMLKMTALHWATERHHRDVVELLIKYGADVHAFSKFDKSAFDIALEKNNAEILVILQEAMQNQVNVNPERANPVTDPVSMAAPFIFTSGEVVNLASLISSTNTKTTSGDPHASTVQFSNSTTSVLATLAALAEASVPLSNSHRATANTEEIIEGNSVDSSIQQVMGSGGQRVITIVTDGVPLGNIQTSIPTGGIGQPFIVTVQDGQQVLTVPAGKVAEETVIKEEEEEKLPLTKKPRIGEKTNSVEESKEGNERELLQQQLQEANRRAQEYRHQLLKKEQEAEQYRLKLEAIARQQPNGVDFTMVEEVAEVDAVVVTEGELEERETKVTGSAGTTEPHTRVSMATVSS
UniProt P25098: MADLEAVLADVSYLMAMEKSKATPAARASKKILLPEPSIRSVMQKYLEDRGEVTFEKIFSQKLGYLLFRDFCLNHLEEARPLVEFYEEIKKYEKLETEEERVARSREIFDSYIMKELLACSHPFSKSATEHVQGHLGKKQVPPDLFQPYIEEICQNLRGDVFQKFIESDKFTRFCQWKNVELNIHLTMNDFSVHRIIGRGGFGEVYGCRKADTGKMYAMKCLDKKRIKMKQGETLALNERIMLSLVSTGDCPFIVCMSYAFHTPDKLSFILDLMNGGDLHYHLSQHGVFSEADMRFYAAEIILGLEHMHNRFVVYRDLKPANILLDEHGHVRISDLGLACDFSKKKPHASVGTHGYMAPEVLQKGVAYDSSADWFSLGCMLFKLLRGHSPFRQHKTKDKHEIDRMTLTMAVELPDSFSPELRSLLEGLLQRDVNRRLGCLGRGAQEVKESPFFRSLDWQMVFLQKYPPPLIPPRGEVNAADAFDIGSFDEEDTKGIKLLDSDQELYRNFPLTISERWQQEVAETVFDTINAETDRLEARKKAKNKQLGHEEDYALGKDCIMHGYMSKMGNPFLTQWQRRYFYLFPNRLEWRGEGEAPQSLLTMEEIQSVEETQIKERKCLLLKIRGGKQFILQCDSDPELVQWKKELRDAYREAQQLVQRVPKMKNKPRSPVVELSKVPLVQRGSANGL
UniProt P15586: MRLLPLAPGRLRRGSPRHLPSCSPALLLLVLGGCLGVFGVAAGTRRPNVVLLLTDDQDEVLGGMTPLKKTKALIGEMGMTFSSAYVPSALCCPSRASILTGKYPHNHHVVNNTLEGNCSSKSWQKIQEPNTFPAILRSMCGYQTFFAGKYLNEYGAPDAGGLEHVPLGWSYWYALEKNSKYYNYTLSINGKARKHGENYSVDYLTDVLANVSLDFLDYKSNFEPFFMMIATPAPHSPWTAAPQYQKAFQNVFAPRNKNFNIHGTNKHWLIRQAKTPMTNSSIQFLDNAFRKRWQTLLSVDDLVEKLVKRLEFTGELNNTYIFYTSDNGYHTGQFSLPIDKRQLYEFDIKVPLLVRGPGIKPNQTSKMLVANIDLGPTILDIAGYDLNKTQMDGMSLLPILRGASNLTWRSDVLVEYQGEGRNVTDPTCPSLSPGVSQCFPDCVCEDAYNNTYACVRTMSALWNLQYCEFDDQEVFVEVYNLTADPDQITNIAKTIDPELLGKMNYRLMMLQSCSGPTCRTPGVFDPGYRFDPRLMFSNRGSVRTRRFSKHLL
UniProt P51610: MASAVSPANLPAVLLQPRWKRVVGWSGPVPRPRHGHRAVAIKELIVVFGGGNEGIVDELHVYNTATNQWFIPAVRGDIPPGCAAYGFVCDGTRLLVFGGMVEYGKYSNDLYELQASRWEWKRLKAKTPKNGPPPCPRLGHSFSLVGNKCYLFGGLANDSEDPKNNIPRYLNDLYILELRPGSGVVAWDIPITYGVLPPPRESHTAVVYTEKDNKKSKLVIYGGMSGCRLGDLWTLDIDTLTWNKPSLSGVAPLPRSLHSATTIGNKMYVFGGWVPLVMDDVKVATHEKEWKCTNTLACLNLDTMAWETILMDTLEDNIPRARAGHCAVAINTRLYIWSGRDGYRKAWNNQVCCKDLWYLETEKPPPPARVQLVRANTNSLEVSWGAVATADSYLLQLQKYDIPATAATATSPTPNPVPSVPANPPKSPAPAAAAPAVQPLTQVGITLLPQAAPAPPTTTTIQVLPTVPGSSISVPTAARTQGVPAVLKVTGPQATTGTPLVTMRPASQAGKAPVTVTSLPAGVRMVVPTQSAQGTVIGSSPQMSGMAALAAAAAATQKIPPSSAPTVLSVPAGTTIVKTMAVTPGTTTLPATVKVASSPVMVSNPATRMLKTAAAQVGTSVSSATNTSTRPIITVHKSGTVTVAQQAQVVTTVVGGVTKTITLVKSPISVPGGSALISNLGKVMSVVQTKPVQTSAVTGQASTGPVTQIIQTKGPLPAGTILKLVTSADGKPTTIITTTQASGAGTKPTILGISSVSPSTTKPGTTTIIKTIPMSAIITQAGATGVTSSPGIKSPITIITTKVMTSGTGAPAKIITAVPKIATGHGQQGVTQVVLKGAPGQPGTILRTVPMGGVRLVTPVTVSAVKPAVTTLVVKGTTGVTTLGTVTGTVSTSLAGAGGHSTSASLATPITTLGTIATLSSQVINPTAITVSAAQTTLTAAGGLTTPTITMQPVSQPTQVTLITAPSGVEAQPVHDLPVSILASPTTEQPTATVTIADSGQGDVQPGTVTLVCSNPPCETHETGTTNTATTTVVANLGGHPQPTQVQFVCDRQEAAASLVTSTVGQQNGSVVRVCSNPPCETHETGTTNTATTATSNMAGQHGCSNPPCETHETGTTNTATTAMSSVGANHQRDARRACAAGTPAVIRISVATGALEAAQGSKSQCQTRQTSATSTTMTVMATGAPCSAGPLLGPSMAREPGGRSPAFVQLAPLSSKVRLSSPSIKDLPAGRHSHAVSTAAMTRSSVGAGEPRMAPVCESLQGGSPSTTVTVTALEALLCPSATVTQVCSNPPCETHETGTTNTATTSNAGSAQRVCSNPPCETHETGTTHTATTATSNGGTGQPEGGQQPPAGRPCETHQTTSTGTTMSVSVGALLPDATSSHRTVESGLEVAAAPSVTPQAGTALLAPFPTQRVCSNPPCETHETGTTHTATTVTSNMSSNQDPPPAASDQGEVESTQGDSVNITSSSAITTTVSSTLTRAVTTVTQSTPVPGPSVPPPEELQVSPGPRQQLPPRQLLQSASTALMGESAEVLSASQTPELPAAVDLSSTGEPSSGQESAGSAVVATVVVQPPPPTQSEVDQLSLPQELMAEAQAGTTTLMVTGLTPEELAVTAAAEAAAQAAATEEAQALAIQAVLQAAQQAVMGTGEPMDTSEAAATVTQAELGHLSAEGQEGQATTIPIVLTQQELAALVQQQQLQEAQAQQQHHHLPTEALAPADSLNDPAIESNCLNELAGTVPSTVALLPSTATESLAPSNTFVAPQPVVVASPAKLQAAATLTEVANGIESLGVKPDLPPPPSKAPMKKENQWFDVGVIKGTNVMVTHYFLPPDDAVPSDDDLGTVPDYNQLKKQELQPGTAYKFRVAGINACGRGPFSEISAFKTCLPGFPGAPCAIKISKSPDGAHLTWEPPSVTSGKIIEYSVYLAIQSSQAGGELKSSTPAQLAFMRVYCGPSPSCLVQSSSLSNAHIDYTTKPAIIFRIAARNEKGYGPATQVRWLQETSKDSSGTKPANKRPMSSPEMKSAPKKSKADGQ
UniProt Q9Y2X7: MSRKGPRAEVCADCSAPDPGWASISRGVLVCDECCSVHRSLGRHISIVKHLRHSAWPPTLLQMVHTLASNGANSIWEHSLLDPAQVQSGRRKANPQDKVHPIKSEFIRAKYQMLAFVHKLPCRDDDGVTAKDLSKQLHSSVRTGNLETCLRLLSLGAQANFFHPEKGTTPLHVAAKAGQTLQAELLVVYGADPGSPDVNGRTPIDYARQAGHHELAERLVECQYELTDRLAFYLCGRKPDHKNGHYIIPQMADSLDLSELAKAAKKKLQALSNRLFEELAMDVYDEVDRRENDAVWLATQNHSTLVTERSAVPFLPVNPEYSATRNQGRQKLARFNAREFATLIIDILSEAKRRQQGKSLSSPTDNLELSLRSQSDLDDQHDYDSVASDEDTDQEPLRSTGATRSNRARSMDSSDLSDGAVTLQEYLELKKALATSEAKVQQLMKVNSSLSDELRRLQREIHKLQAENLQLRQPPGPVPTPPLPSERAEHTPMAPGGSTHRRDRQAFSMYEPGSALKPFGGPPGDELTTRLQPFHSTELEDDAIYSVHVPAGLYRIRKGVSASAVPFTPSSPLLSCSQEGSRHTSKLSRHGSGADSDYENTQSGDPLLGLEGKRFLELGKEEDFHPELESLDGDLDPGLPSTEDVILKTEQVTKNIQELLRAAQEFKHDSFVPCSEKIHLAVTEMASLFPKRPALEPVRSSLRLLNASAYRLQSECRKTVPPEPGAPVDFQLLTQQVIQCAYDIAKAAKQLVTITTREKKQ
UniProt Q9Y3E1: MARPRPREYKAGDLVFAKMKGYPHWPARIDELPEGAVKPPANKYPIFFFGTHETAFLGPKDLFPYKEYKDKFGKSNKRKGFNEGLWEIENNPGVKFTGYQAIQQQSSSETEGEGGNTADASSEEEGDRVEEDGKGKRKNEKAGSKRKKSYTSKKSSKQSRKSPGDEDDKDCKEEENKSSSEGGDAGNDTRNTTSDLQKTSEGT
UniProt Q96FZ2: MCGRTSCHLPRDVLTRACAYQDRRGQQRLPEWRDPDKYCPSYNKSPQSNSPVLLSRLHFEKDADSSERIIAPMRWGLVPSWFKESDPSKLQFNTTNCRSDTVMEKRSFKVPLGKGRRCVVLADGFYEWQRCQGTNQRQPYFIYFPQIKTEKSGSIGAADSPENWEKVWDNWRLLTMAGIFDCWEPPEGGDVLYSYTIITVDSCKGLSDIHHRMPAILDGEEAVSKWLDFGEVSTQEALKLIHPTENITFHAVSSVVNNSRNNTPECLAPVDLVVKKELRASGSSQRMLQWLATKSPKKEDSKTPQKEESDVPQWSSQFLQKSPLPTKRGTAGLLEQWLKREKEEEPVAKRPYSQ

compound: Nc1nc2c(ncn2[C@@H]2O[C@H](COP(=O)(O)OP(=O)(O)OP(=O)(O)O)[C@@H](O)[C@H]2O)c(=O)[nH]1; test: dose-dependent thermal stabilisation call (2D-TPP, DLPTP, 10% FDR) (binary (1 = stabilised)); higher = stabilised by the compound; settings: system: Jurkat gel-filtered lysate; concentration range 1-500 µM

dose-dependent thermal stabilisation call, active:
GSTO1 (UniProt P78417) 1
GNAS (UniProt P63092) 1
GBP1 (UniProt P32455) 1
GUK1 (UniProt Q16774) 1
HK2 (UniProt P52789) 1

dose-dependent thermal stabilisation call, inactive:
GNB1L (UniProt Q9BYB4) 0
H2AFZ (UniProt P0C0S5) 0
GATAD2B (UniProt Q8WXI9) 0
HIST1H1D (UniProt P16402) 0
GRN (UniProt P28799) 0
GOLGA3 (UniProt Q08378) 0
GTF2E1 (UniProt P29083) 0
HMG20B (UniProt Q9P0W2) 0
HEXIM2 (UniProt Q96MH2) 0
GPS1 (UniProt Q13098) 0
GABPB2 (UniProt Q8TAK5) 0
GRK2 (UniProt P25098) 0
GSR (UniProt P00390) 0
HMGN2 (UniProt P05204) 0
GNS (UniProt P15586) 0
HNRNPH1 (UniProt P31943) 0
GTF2A1 (UniProt P52655) 0
GTF2H3 (UniProt Q13889) 0
GABARAPL2 (UniProt P60520) 0
HDHD3 (UniProt Q9BSH5) 0
HCFC1 (UniProt P51610) 0
GPATCH11 (UniProt Q8N954) 0
GIT1 (UniProt Q9Y2X7) 0
HDAC3 (UniProt O15379) 0
GAR1 (UniProt Q9NY12) 0
HACE1 (UniProt Q8IYU2) 0
HDGFL3 (UniProt Q9Y3E1) 0
HMGN4 (UniProt O00479) 0
HMCES (UniProt Q96FZ2) 0
GFOD2 (UniProt Q3B7J2) 0
GARS (UniProt P41250) 0

For convenience, part of the list above:
dose-dependent thermal stabilisation call, inactive:
HMG20B (UniProt Q9P0W2) 0
HEXIM2 (UniProt Q96MH2) 0
